PubChem BioAssay AID602196 | INSERM | 2012
The deposit covers about 23,000 reagents; below is a random part of them. 455 of all reagents (2%) count as active. 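Active includes both protection and sensitisation; some change values fall well beyond the stated -50 to +50 range.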 Reagents against one gene are numbered here. Not given: the amount of reagent.

- Assay: 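Genes whose knock-down alters cisplatin killing of lung cancer cells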
- Cell system: human A549 lung cancer cells
- Reagent: siRNA pair against human genes
- Duration: 48 h transfection before cisplatin; time from cisplatin to read-out not stated
- Conditions: cisplatin at a dose killing half of control-siRNA cells; exact dose and duration not given
- Detection: 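Shift in cisplatin death relative to control siRNA, from -50 (all cells die) to +50 (no cells die); siRNAs harmful on their own scored 0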
- Scale: two-siRNA summed score (-2 to +2): higher = both siRNAs protect from cisplatin killing; -2 means both sensitise; mean protection from cisplatin (shift in death) and protection from cisplatin (shift in death), siRNA C and protection from cisplatin (shift in death), siRNA D: higher = protection from cisplatin killing
- Rule for the call: 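Each siRNA scores 0 if harmful alone by LDH or WST-1, otherwise +1 if it reduces and -1 if it increases cisplatin killing; a gene is active when both siRNAs agree (sum +2 or -2)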
- Meaning of the calls: active = both siRNAs shift cisplatin killing the same way; inactive = no consistent shift, or siRNA harmful alone

no.	gene	reagent no.	two-siRNA summed score (-2 to +2)	mean protection from cisplatin (shift in death) (%)	protection from cisplatin (shift in death), siRNA C (%)	protection from cisplatin (shift in death), siRNA D (%)	outcome
1	OR4C46	1	0	10.8	11	10.7	inactive
2	UBE2G2	1	-1	-5.3	-17.3	6.7	inactive
3	PIGQ	1	0	0.1	2.9	-2.6	inactive
4	TFR2	1	0	7.3	9.5	5.1	inactive
5	E2F5	1	0	6.9	4.2	9.5	inactive
6	OTUD5	1	-1	-14.3	-14.6	-14	inactive
7	GAD1	1	-1	8.3	-8.7	25.3	inactive
8	LOC399839	1	0	3.2	4.1	2.2	inactive
9	ABCC1	1	0	6.1	12.4	-0.2	inactive
10	RHOH	1	-1	-0.5	10.4	-11.5	inactive
11	KCTD15	1	0	12.7	5	20.4	inactive
12	DOCK8	1	0	-0.9	4.6	-6.4	inactive
13	LOC169834	1	0	-6	-6.4	-5.5	inactive
14	PHKB	1	-1	0.1	14.9	-14.7	inactive
15	LOC150580	1	0	6.2	5.5	6.9	inactive
16	HS6ST2	1	1	7.6	13.3	2	inactive
17	BTNL8	1	1	15.5	11.1	20	inactive
18	ATXN7L2	1	0	0.6	6	-4.7	inactive
19	MMRN1	1	1	14.1	13.5	14.7	inactive
20	CCN5	1	0	-13.3	-28.6	1.9	inactive
21	BACE1	1	0	-7.2	-6	-8.5	inactive
22	DPH7	1	0	-2.1	6.7	-10.9	inactive
23	ELOVL5	1	0	3.1	-0.3	6.5	inactive
24	URGCP	1	0	-2.7	-5.8	0.5	inactive
25	LOC391092	1	0	-1.9	-3.4	-0.3	inactive
26	ORC3	1	0	-0.5	-14.8	13.9	inactive
27	IL7R	1	0	-12.2	-17.3	-7.1	inactive
28	ADPRH	1	0	-1.2	-10.1	7.8	inactive
29	AK2	1	0	2.1	-9	13.3	inactive
30	TMEM87B	1	0	4.4	12.5	-3.7	inactive
31	VPS26A	1	0	-5.2	-17.2	6.7	inactive
32	LTO1	1	0	18.9	20	17.8	inactive
33	ARFIP1	1	0	9.4	8	10.9	inactive
34	STARD7-AS1	1	0	5.2	-1.6	11.9	inactive
35	FUT7	1	0	-2.7	-9.3	3.9	inactive
36	ORMDL3	1	0	3.9	17.3	-9.4	inactive
37	GALNT6	1	1	20.5	27.7	13.3	inactive
38	BRD8	1	0	1.3	8.8	-6.2	inactive
39	LOC399876	1	0	2.1	7.1	-2.8	inactive
40	RBBP8NL	1	0	0	-6.4	6.4	inactive
41	BTBD3	1	0	0.5	-13.9	14.9	inactive
42	SNRPD1	1	0	-5.2	-4	-6.5	inactive
43	TOR1A	1	0	2.9	1	4.9	inactive
44	UBFD1	1	0	-2.1	0.5	-4.7	inactive
45	LOC440941	1	0	2.6	2.5	2.8	inactive
46	YIPF3	1	0	7.2	6.4	8	inactive
47	PLAC8L1	1	0	3.1	2	4.3	inactive
48	SLC2A5	1	-1	-21.9	-32.2	-11.5	inactive
49	LARP1	1	0	-2.9	-10.5	4.7	inactive
50	LARP1	2	0	-2.5	-2.8	-2.3	inactive
51	SDK1	1	-1	-16.3	-24.7	-7.9	inactive
52	SEPTIN12	1	0	2.5	-2.1	7.1	inactive
53	PLXDC2	1	0	11.7	11	12.4	inactive
54	SPATA31A7	1	0	9.7	4.7	14.7	inactive
55	LOC391797	1	0	13.1	8.1	18.1	inactive
56	TLR8	1	0	13.2	15.4	11.1	inactive
57	MAMDC2	1	0	1.5	6.2	-3.3	inactive

Individual results from above.
OTUD5, mean protection from cisplatin (shift in death) (%): -14.3
Under “mean protection from cisplatin (shift in death) (%)”, RHOH has -0.5
OR4C46, mean protection from cisplatin (shift in death) (%) = 10.8
Value for BACE1 in “mean protection from cisplatin (shift in death) (%)”: -7.2
SNRPD1, mean protection from cisplatin (shift in death) (%): -5.2
Result for ORC3 in “protection from cisplatin (shift in death), siRNA C (%)”: -14.8
